Measured values as given in PubChem BioAssay AID540276 (National Center for Advancing Translational Sciences (NCATS), 2011).
About 5,400 (1.8%) of roughly 300,000 compounds were called active. The shares of active, inactive and inconclusive entries below differ from those in the screen. Calls follow the shape of the full dose curve; tested in HEK293 cells. Potencies beside an inconclusive call are fits to weak or partial responses and may not hold up.
% is scaled to controls: 0 for no effect and ±100 for the full control effect; potency is read from the fitted curve at half-maximal effect.

Experiment: qHTS for inhibitors of binding or entry into cells for Marburg Virus
Conditions: Marburg virus pseudotyped entry inhibition, cell reporter; activity change, negative = inhibition: at 37.8 µM (top of the series) unless noted
With `CNc1oc(-c2cccc3ccccc23)nc1C#N` the “activity change, negative = inhibition” value was inactive: 2.02%.
For `Cc1ccc(NS(=O)(=O)c2cccc(C(=O)NCC(c3cccs3)N(C)C)c2)cc1` (stereo not given), the Potency was inconclusive: 11.2 µM [inhibitor, partial curve, poor fit].
For `O=C(CCn1c(=O)oc2ccccc21)Nc1cccc(Br)c1`, the “activity change, negative = inhibition” value was inactive: 10.5%.
For `Cc1nn(-c2ccccc2)c(Cl)c1/C=N/Nc1nc2ccccc2n1C`, the “activity change, negative = inhibition” value was inactive: -7.84%.
In the case of `CCCCn1c(N)c(N(CCOC)C(=O)c2ccc(F)c(S(=O)(=O)N3CCOCC3)c2)c(=O)[nH]c1=O`, the “activity change, negative = inhibition” value is reported as inactive: 22.7%.
With `CCc1ccc(S(=O)(=O)N(C(=O)c2ccncc2)c2ccc(OC(=O)c3ccncc3)cc2)cc1` the Potency was inconclusive: 35.5 µM [inhibitor, single point].
In the case of `O=C(COC(=O)/C=C/c1ccc(S(=O)(=O)N2CCOCC2)cc1)NCc1ccc(Cl)cc1`, the Potency is reported as inconclusive: 35.5 µM [inhibitor, single point].
In the case of `Cc1cccc(C)c1NC(=O)C[N+](C)(C)C`, the Potency is reported as “inactive”.
With `Cc1cc(-c2cc(C)c(N)cc2C)c(C)cc1N` the Potency was inconclusive: 11.2 µM [inhibitor, partial curve, poor fit].
With `O=C(CSCC(=O)NCc1ccco1)NCc1ccco1` the Potency was inconclusive: 7.3 µM [activator, partial curve, poor fit].
In the case of `CCN1CCN(C(c2ccc(OC)c(OC)c2)c2nnnn2C(C)(C)C)CC1` (stereo not given), the Potency is reported as inconclusive: 0.316 µM [activator, partial curve, poor fit].
With `COc1ccc(N(CC(=O)NCc2ccc3c(c2)OCO3)C(=O)CCC(=O)Nc2ccccn2)cc1` the Potency was inconclusive: 6.31 µM [inhibitor, single point].
With `CC(C)N(C(=S)Nc1cccc(C(F)(F)F)c1)C(C)c1ccccn1` (stereo not given) the Potency was inconclusive: 10 µM [inhibitor, partial curve, poor fit].
For `CC(C)(C)NC(=O)CSC(=Nc1cccc(F)c1)NC#N`, the Potency was inconclusive: 35.5 µM [inhibitor, single point].
In the case of `Cc1cc(C)c(N(CC(=O)NC(C)(C)C)C(=O)CNC(=O)c2cccs2)c(C)c1`, the “activity change, negative = inhibition” value is reported as inactive: -4.7% [at 46.1 µM].
For `COc1ccc(-c2csc(NC(=O)Cc3ccccc3F)n2)cc1OC`, the Potency was inconclusive: 8.91 µM [inhibitor, partial curve, poor fit].
For `COc1ccccc1NC(=O)C(Cc1ccccc1)NS(=O)(=O)c1cccc2nsnc12` (stereo not given), the “activity change, negative = inhibition” value was inactive: 5.92% [at 46.1 µM].
With `COc1ccc(CN(C)C(c2ccccc2)c2nnnn2-c2ccccc2C)c(OC)c1C` (stereo not given) the Potency was inconclusive: 35.5 µM [inhibitor, single point].
With `CN1c2ccccc2C(C)(C)C12C=Nc1c(cc(N3CCOCC3)c3ccccc13)O2` (stereo not given) the Potency was inconclusive: 31.6 µM [inhibitor, single point].
For `O=C(Cn1nnc2ccccc21)c1cccc([N+](=O)[O-])c1`, the “activity change, negative = inhibition” value was inactive: 11.3%.
With `N=c1c2c(-c3ccccc3)c(-c3ccccc3)oc2ncn1CCCN1CCOCC1` the Potency was active: 8.2 µM.
In the case of `CCCCN(CCCC)CC1OCc2ccccc2CO1`, the Potency is reported as inconclusive: 29.1 µM [inhibitor, single point].
In the case of `COC(=O)CCCC1=CC2=CC(=O)C(C)(OC(=O)c3cccs3)C(=O)C2=CN1CCc1ccccn1` (stereo not given), the Potency is reported as inconclusive: 1.33 µM [activator, partial curve, poor fit].
For `CC12COC3(C(=O)NCCc4ccccc4)CC1CCC32C` (stereo not given), the Potency was inconclusive: 20.6 µM [activator, single point].
For `CCOC(=O)c1c(-c2ccccc2)csc1NC(=O)CSc1nc(C)cc(C)n1`, the Potency was inconclusive: 29.1 µM [inhibitor, single point].
For `Cc1cccc(NC(=O)c2cc(Cl)nc3ccccc23)n1`, the Potency was inconclusive: 35.5 µM [inhibitor, single point].
With `Cc1cc(F)ccc1O[C@H]1C=C[C@@H](c2ccc3c(c2)OCO3)O[C@@H]1CO` the “activity change, negative = inhibition” value was inactive: 14.2% [at 14.2 µM].
With `Cc1ccc(C(=O)N2CCc3ccccc3C2)cc1S(=O)(=O)N1CCOCC1` the Potency was inconclusive: 5.01 µM [activator, single point].
For `O=C(CCCOc1ccccc1)Nc1cccc(S(=O)(=O)N2CCOCC2)c1`, the “activity change, negative = inhibition” value was inactive: 8.09%.
For `Cc1cc(NC(=O)COC(=O)C(C)Oc2ccc(Cl)cc2Cl)no1` (stereo not given), the “activity change, negative = inhibition” value was inactive: 0.557% [at 46.1 µM].
In the case of `COc1ccc2c(c1)-c1nc(/N=C/c3ccccc3O)sc1CC2`, the “activity change, negative = inhibition” value is reported as inactive: 19.1%.
With `CCCCC(c1nnnn1CS(=O)(=O)c1ccc(C)cc1)N1CCN(c2ccccc2)CC1` (stereo not given) the Potency was active: 14.1 µM.
In the case of `Cn1c(SCc2ccccn2)nnc1-c1ccncc1`, the “activity change, negative = inhibition” value is reported as inactive: 15.7%.
In the case of `Cc1ccc(S(=O)(=O)/C=C/C#N)cc1`, the Potency is reported as inconclusive: 29.1 µM [inhibitor, single point].
With `CCOc1ccc(NC(=O)CN(C)C(=O)CCNC(=O)c2ccc(Br)cc2)cc1OCC` the Potency was inconclusive: 0.794 µM [inhibitor, single point].
In the case of `N#Cc1c(C(F)(F)F)cc(-c2cccs2)nc1SCC(=O)Nc1cccc(C(F)(F)F)c1`, the Potency is reported as inconclusive: 7.08 µM [inhibitor, full curve].
In the case of `CCOc1ccccc1NC(=O)CN1C(=O)CSC(C)C1=O` (stereo not given), the Potency is reported as inconclusive: 10 µM [inhibitor, partial curve, poor fit].
In the case of `CCn1c(SCc2nc3ccccc3c(=O)[nH]2)nc2ccccc21`, the Potency is reported as inconclusive: 11.2 µM [inhibitor, partial curve, poor fit].
For `COc1ccc(S(=O)(=O)N(Cc2nc(-c3ccc(Cl)cc3)no2)C2CCCCC2)cc1`, the “activity change, negative = inhibition” value was inactive: -0.206% [at 46.1 µM].
In the case of `CC1CCCN(S(=O)(=O)c2ccc(NC(=O)C3CC(=O)N(C(C)(C)C)C3)cc2)C1` (stereo not given), the “activity change, negative = inhibition” value is reported as inactive: 0.735%.
For `Nc1nc(SCC(=O)NC2CCCc3ccccc32)n[nH]1` (stereo not given), the Potency was inconclusive: 3.55 µM [activator, single point].
With `COc1ccc(S(=O)(=O)N(CC(=O)NCCSCc2ccccc2)c2ccc(C)cc2)cc1` the “activity change, negative = inhibition” value was inactive: -9.44% [at 46.1 µM].
In the case of `O=c1c2cc(Br)ccc2[nH]c(=S)n1-c1ccccc1`, the “activity change, negative = inhibition” value is reported as inactive: -0.248%.
In the case of `Cc1cc[n+](CC(=O)c2ccc3c(c2)OCCO3)cc1`, the “activity change, negative = inhibition” value is reported as inactive: -10.9% [at 46.1 µM].
With `COc1ccc(F)cc1S(=O)(=O)n1nnc2ccccc21` the Potency was inconclusive: 0.1 µM [inhibitor, full curve, poor fit].
In the case of `c1cncc(-c2csc(NCc3ccco3)n2)c1`, the Potency is reported as inconclusive: 14.6 µM [activator, partial curve].
In the case of `Cn1c(=O)c(=O)n(C)c2cc(S(=O)(=O)N3CCCC3C(=O)Nc3ccc(F)cc3)ccc21` (stereo not given), the Potency is reported as inconclusive: 20 µM [inhibitor, single point].
For `O=C(N/N=C/c1ccccn1)c1cc(-c2ccncc2)nc2ccccc12`, the Potency was inconclusive: 0.231 µM [activator, full curve].
With `Cc1nn(-c2ccccc2)c(C)c1/C=N/n1c(-c2ccncc2)n[nH]c1=S` the Potency was inconclusive: 3.16 µM [inhibitor, full curve, poor fit].
With `Cc1cc(C)c(S(=O)(=O)N2CCCC2)c(C)c1` the “activity change, negative = inhibition” value was inactive: -6.1% [at 46.1 µM].
With `CCCCCCc1cc2cc(-c3nnc(-c4ccccc4O)o3)c(=O)oc2cc1O` the Potency was “inactive”.
For `O=S(=O)(Nc1cccc(-c2ccc3nncn3n2)c1)c1cccc(F)c1`, the Potency was inconclusive: 5.62 µM [inhibitor, single point].
In the case of `CC(C)OCCCn1c(-c2ccco2)nc2nc3ccccc3nc21`, the “activity change, negative = inhibition” value is reported as inactive: -16%.
For `CC(C)c1ccc(NC(=O)CCN2C(=O)c3ccc([N+](=O)[O-])cc3C2=O)cc1`, the Potency was inconclusive: 0.259 µM [inhibitor, partial curve, poor fit].
For `CCc1nnc(SCC(=O)Nc2ccc3c(c2)OCO3)o1`, the “activity change, negative = inhibition” value was inactive: 1%.
In the case of `CN(CC(=O)Nc1ccc(F)cc1)C(=O)COC(=O)c1ccccc1`, the Potency is reported as inconclusive: 0.631 µM [activator, full curve, poor fit].
In the case of `CCCn1c(=O)c2[nH]c(-c3ccc(OCC(=O)NCCN)cc3)nc2n(CCC)c1=O`, the Potency is reported as inconclusive: 20.6 µM [activator, single point].
In the case of `CC(=O)c1ccc(OCC(C)C)c(CN2CCCCC2)c1`, the Potency is reported as inconclusive: 6.31 µM [inhibitor, full curve, poor fit].
For `Cc1cc(CCNC=O)c(C)c2c1oc1ccccc12`, the Potency was inconclusive: 12.6 µM [activator, single point].
With `Cc1cccc(N(C(=O)CCC(=O)Nc2ccccn2)C(C(=O)NC(C)C)c2ccc(F)cc2)c1` (stereo not given) the Potency was inconclusive: 11.2 µM [inhibitor, partial curve, poor fit].
For `Cc1cccc(NC(=S)N2CCN(S(=O)(=O)c3ccccc3)CC2)c1`, the “activity change, negative = inhibition” value was inactive: 5.34% [at 46.1 µM].
With `COc1ccc2c(c1)cc1n2CCN=C1N` the Potency was active: 10.3 µM.
For `Cc1cccc(OCCCSc2nc3ccccc3[nH]2)c1`, the Potency was inconclusive: 29.1 µM [inhibitor, single point].
For `Cc1ccc(CN2CCS(=O)(=O)CC2)cc1`, the Potency was inconclusive: 1.41 µM [activator, partial curve, poor fit].
In the case of `Cc1cccc(NS(=O)(=O)c2ccc(C)c(C(=O)NCC(c3cccs3)N(C)C)c2)c1` (stereo not given), the Potency is reported as inconclusive: 35.5 µM [inhibitor, single point].
With `O=C1Nc2c(c(=O)[nH]c(=O)n2-c2ccc(F)cc2)C1(NS(=O)(=O)c1ccccc1)C(F)(F)F` (stereo not given) the Potency was inconclusive: 0.13 µM [inhibitor, full curve, poor fit].
For `O=C(O)c1ccc(NC2=C(N3CCOCC3)C(=O)c3ccccc3C2=O)cc1`, the “activity change, negative = inhibition” value was inactive: -8.6%.
For `COc1ccc2c(c1)c(CC(=O)OC(C)C(=O)N(C)C)c(C)n2C(=O)c1ccc(Cl)cc1` (stereo not given), the Potency was inconclusive: 12.6 µM [inhibitor, single point].
For `O=C(/C=C\c1ccco1)Nc1cc([N+](=O)[O-])ccc1F`, the Potency was inconclusive: 0.708 µM [inhibitor, full curve, poor fit].
For `CCN(CC(=O)Nc1ccc(C(=O)OC)cc1)C1CCCCC1`, the Potency was inconclusive: 11.2 µM [inhibitor, partial curve, poor fit].
